Values quoted from earlier work in patent US20230190756A1, “PHARMACEUTICAL FORMULATION FOR THE ELIMINATION OF CAUSATIVE AGENTS OF HERPESVIRAL INFECTIONS FROM THE TISSUES OF A MACROORGANISM” (priority 2017, published 2023).
For at least one compound, name, drawing or mass did not settle the structure.

Test system: EBV lymphoma cells
Settings: cited from earlier work

Which “effective concentrations for sensitizing to ganciclovir” value does the source give for `Cc1[nH]c2ccccc2c1CCNCc1ccc(/C=C/C(=O)NO)cc1` [LBH589, panobinostat] here?
The value was “effective at nanomolar concentrations”.
